In the supplement of paper PMC8728848:
The other results are listed elsewhere or left out.

Experiments:
Assay in all cases: glycan array binding signal (z-score within array); higher = stronger binding
Settings in all cases: glycan notation: IUPAC condensed, linker removed
[1] = biological target: Gal(b1-3)GlcNAc(b1-2)Man(a1-3)[Gal(b1-3)GlcNAc(b1-2)Man(a1-6)]Man(b1-4)GlcNAc(b1-4)[Fuc(a1-6)]GlcNAc
Outline: (§1)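 Negative Z-scores can be read as non-binding. The Z-score is calculated within each array and then averaged across arrays of one protein sequence at different concentrations or buffers and across linkers. Arrays, 3228 in all, were curated from the Consortium for Functional Glycomics database and kept only where the protein sequence was available.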

[2] = biological target: Gal(b1-3)GlcNAc(b1-2)Man(a1-3)[GlcNAc(b1-4)][Gal(b1-3)GlcNAc(b1-2)Man(a1-6)]Man(b1-4)GlcNAc(b1-4)GlcNAc
Outline: as §1

[3] = biological target: Gal(b1-3)GlcNAc(b1-2)[Gal(b1-3)GlcNAc(b1-6)]Man(a1-6)[Gal(b1-3)GlcNAc(b1-2)Man(a1-3)]Man(b1-4)GlcNAc(b1-4)GlcNAc
Outline: as §1

[4] = biological target: Gal(b1-3)GlcNAc(b1-3)Gal(b1-3)GlcNAc
Outline: as §1

[5] = biological target: Gal(b1-3)GlcNAc(b1-3)Gal(b1-4)Glc
Outline: as §1

[6] = biological target: Gal(b1-3)GlcNAc(b1-3)Gal(b1-4)GlcNAc
Outline: as §1

[7] = biological target: Gal(b1-3)GlcNAc(b1-3)Gal(b1-4)GlcNAc(b1-2)Man(a1-3)[Gal(b1-3)GlcNAc(b1-3)Gal(b1-4)GlcNAc(b1-2)Man(a1-6)]Man(b1-4)GlcNAc(b1-4)GlcNAc
Outline: as §1

[8] = biological target: Gal(b1-3)GlcNAc(b1-3)Gal(b1-4)GlcNAc(b1-2)[Gal(b1-3)GlcNAc(b1-3)Gal(b1-4)GlcNAc(b1-6)]Man(a1-6)[Gal(b1-3)GlcNAc(b1-3)Gal(b1-4)GlcNAc(b1-2)Man(a1-3)]Man(b1-4)GlcNAc(b1-4)[Fuc(a1-6)]GlcNAc
Outline: as §1

[9] = biological target: Gal(b1-3)GlcNAc(b1-3)Gal(b1-4)GlcNAc(b1-3)Gal(b1-4)GlcNAc(b1-2)[Gal(b1-3)GlcNAc(b1-3)Gal(b1-4)GlcNAc(b1-3)Gal(b1-4)GlcNAc(b1-6)]Man(a1-6)[Gal(b1-3)GlcNAc(b1-3)Gal(b1-4)GlcNAc(b1-3)Gal(b1-4)GlcNAc(b1-2)Man(a1-3)]Man(b1-4)GlcNAc(b1-4)[Fuc(a1-6)]GlcNAc
Outline: as §1

[10] = biological target: Gal(b1-3)GlcNAc(b1-3)Gal(b1-4)GlcNAc(b1-6)[Gal(b1-3)GlcNAc(b1-3)]Gal(b1-4)Glc
Outline: as §1

[11] = biological target: Gal(b1-3)GlcNAc(b1-3)Gal(b1-4)[Fuc(a1-3)]GlcNAc
Outline: as §1

[12] = biological target: Gal(b1-3)GlcNAc(b1-3)Gal(b1-4)[Fuc(a1-3)]GlcNAc(b1-6)[Gal(b1-3)GlcNAc(b1-3)]Gal(b1-4)Glc
Outline: as §1

[13] = biological target: Gal(b1-3)GlcNAc(b1-3)GalNAc
Outline: as §1

[14] = biological target: Gal(b1-3)GlcNAc(b1-6)Gal(b1-4)GlcNAc
Outline: as §1

[15] = biological target: Gal(b1-3)GlcNAc(b1-6)GalNAc
Outline: as §1

[16] = biological target: Gal(b1-3)GlcNAc(b1-6)[Gal(b1-3)]GalNAc
Outline: as §1

Gal(b1-3)GlcNAc6S = biological target: Gal(b1-3)GlcNAc6S
Outline: as §1

[17] = biological target: Gal(b1-3)[Fuc(a1-4)]GlcNAc
Outline: as §1

[18] = biological target: Gal(b1-3)[Fuc(a1-4)]GlcNAc(b1-2)Man
Outline: as §1

[19] = biological target: Gal(b1-3)[Fuc(a1-4)]GlcNAc(b1-2)Man(a1-3)[Gal(b1-3)[Fuc(a1-4)]GlcNAc(b1-2)Man(a1-6)]Man(b1-4)GlcNAc(b1-4)[Fuc(a1-6)]GlcNAc
Outline: as §1

[20] = biological target: Gal(b1-3)[Fuc(a1-4)]GlcNAc(b1-3)Gal(b1-3)[Fuc(a1-4)]GlcNAc
Outline: as §1

[21] = biological target: Gal(b1-3)[Fuc(a1-4)]GlcNAc(b1-3)Gal(b1-4)[Fuc(a1-3)]GlcNAc
Outline: as §1

[22] = biological target: Gal(b1-3)[Fuc(a1-4)]GlcNAc(b1-6)GalNAc
Outline: as §1

[23] = biological target: Gal(b1-3)[GlcNAc(b1-6)]GalNAc
Outline: as §1

[24] = biological target: Gal(b1-3)[Neu5Ac(a2-6)]GalNAc
Outline: as §1

[25] = biological target: Gal(b1-3)[Neu5Ac(a2-6)]GlcNAc(b1-4)Gal(b1-4)Glc
Outline: as §1

[26] = biological target: Gal(b1-3)[Neu5Ac(b2-6)]GalNAc
Outline: as §1

Gal(b1-4)Gal = biological target: Gal(b1-4)Gal
Outline: as §1

[27] = biological target: Gal(b1-4)GalNAc(a1-3)[Fuc(a1-2)]Gal(b1-4)GlcNAc
Outline: as §1

[28] = biological target: Gal(b1-4)GalNAc(b1-3)[Fuc(a1-2)]Gal(b1-4)GlcNAc
Outline: as §1

Gal(b1-4)Glc = biological target: Gal(b1-4)Glc
Outline: as §1

Gal(b1-4)Glc6S = biological target: Gal(b1-4)Glc6S
Outline: as §1

Gal(b1-4)GlcNAc = biological target: Gal(b1-4)GlcNAc
Outline: as §1

[29] = biological target: Gal(b1-4)GlcNAc(a1-6)Gal(b1-4)GlcNAc
Outline: as §1

Gal(b1-4)GlcNAc(b1-2)Man = biological target: Gal(b1-4)GlcNAc(b1-2)Man
Outline: as §1

[30] = biological target: Gal(b1-4)GlcNAc(b1-2)Man(a1-3)Man(b1-4)GlcNAc(b1-4)GlcNAc
Outline: as §1

[31] = biological target: Gal(b1-4)GlcNAc(b1-2)Man(a1-3)[Gal(b1-4)GlcNAc(b1-2)Man(a1-6)]Man(b1-4)GlcNAc(b1-4)GlcNAc
Outline: as §1

B1: PX14343G-pdi-535-24-535 (Parabacteroides distasonis) (protein)
chain: LDTVPKDQLAPSTTWQTEADAKGFIVGCYKDLLDGNTLLYLDCGSDIGYNNFPWEGFRPWGDGSLSSSNPGQILYDYKSIRKANTFLENVDKVTFSSDAVKANYVAQAKAIRAYKYFLMNWWYGGVPIISSYSSADEAKVERNTEQEVRDYIAKDLDEALAGIAEAPEARGYIAKGAVLAIKMREALYYGDWQKAKDAAKAIIDLKQYELDPDYTNLFKVSGVDSKEIILADQNIETLDGLGTIGQMYNNVDQGWSSIVPTQNLVDMYEMSDGLTKEESKTYDAKHPFANRDPRMAMTILYPGRDWRGDVLNTLDEKLQDGTVNKNFPTYTDNASKSALTWAKYLDPMDQYGDVWSSGACPIVFRYAEVLLTYAEAANELSGPSDEIYGYLNQIRQRVGMGEVDKAKYGTKDKLRELIRRERTVELAGEGLRRADIVRWQEDGKMLAEKVMNGDLLRVTGTINYGESEPTKRAEITGTAVIETRQFSSRNRYLPIPQTSMDKNPNLKQNPGY
[1]
  glycan array binding signal (z-score): 0.087
[2]
  glycan array binding signal (z-score): 0.434
[3]
  glycan array binding signal (z-score): 0.783
[4]
  glycan array binding signal (z-score): 0.138
[5]
  glycan array binding signal (z-score): -0.237
[6]
  glycan array binding signal (z-score): -0.023
[7]
  glycan array binding signal (z-score): -0.318
[8]
  glycan array binding signal (z-score): 0.821
[9]
  glycan array binding signal (z-score): 0.718
[10]
  glycan array binding signal (z-score): 0.24
[11]
  glycan array binding signal (z-score): -0.53
[12]
  glycan array binding signal (z-score): 0.066
[13]
  glycan array binding signal (z-score): -0.933
[14]
  glycan array binding signal (z-score): 0.186
[15]
  glycan array binding signal (z-score): -0.848
[16]
  glycan array binding signal (z-score): 0.402
Gal(b1-3)GlcNAc6S
  glycan array binding signal (z-score): -0.626
[17]
  glycan array binding signal (z-score): 0.04
[18]
  glycan array binding signal (z-score): -0.295
[19]
  glycan array binding signal (z-score): 0.312
[20]
  glycan array binding signal (z-score): -0.411
[21]
  glycan array binding signal (z-score): -0.484
[22]
  glycan array binding signal (z-score): -0.389
[23]
  glycan array binding signal (z-score): 0.043
[24]
  glycan array binding signal (z-score): -0.295
[25]
  glycan array binding signal (z-score): -1.11
[26]
  glycan array binding signal (z-score): 0.251
Gal(b1-4)Gal
  glycan array binding signal (z-score): -0.782
[27]
  glycan array binding signal (z-score): -0.868
[28]
  glycan array binding signal (z-score): -0.339
Gal(b1-4)Glc
  glycan array binding signal (z-score): -0.172
Gal(b1-4)Glc6S
  glycan array binding signal (z-score): 0.157
Gal(b1-4)GlcNAc
  glycan array binding signal (z-score): -0.549
[29]
  glycan array binding signal (z-score): 0.739
Gal(b1-4)GlcNAc(b1-2)Man
  glycan array binding signal (z-score): -0.304
[30]
  glycan array binding signal (z-score): -1.1
[31]
  glycan array binding signal (z-score): -0.376
